# Test results from doi:10.1101/2021.07.13.452210.
# Sequences of proteins named here, by UniProt entry; tags and fusion partners are left off.
# UniProt Q96NB1: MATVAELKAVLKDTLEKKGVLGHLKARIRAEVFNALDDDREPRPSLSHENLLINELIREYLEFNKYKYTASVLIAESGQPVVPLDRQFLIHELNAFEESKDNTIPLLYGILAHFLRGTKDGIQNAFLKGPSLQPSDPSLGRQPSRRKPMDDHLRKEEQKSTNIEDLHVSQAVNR
# UniProt Q9BVV6: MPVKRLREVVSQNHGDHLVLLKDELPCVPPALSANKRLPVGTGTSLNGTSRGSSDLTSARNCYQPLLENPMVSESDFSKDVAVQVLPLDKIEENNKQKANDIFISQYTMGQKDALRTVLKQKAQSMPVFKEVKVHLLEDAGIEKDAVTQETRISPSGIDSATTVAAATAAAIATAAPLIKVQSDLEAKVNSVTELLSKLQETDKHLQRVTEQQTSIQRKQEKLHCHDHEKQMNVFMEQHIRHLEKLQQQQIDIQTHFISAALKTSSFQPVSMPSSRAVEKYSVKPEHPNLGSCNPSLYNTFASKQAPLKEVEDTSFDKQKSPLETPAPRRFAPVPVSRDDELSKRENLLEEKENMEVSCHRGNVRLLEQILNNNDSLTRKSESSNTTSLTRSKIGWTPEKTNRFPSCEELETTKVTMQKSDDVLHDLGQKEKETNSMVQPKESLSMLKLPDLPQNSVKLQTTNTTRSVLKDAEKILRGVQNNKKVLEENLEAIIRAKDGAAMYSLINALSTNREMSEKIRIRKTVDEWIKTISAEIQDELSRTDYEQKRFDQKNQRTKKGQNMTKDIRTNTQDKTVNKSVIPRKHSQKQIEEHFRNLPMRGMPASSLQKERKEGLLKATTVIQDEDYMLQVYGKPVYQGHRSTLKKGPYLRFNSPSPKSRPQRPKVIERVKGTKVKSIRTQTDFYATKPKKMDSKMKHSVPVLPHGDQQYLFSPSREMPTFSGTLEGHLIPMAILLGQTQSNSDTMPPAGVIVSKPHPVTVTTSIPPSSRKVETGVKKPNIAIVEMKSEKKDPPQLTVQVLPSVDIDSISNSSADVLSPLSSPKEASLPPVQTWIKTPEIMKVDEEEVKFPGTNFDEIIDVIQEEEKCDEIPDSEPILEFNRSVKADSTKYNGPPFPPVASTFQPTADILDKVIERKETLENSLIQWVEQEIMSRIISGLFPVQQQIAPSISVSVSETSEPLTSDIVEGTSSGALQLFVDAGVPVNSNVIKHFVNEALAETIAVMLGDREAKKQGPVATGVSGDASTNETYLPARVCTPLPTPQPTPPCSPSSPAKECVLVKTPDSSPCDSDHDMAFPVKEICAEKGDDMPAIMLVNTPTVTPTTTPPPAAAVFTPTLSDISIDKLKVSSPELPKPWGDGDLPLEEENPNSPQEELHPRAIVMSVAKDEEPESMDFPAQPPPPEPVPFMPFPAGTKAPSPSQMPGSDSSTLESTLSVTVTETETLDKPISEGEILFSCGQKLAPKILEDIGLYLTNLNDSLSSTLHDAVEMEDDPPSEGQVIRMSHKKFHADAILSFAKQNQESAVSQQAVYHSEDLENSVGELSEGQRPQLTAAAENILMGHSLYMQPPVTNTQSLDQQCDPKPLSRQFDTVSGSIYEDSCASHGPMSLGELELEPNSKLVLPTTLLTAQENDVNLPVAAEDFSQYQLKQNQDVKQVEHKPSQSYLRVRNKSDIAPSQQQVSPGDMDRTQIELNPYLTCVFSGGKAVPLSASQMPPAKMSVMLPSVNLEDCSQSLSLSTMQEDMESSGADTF
# UniProt Q15154: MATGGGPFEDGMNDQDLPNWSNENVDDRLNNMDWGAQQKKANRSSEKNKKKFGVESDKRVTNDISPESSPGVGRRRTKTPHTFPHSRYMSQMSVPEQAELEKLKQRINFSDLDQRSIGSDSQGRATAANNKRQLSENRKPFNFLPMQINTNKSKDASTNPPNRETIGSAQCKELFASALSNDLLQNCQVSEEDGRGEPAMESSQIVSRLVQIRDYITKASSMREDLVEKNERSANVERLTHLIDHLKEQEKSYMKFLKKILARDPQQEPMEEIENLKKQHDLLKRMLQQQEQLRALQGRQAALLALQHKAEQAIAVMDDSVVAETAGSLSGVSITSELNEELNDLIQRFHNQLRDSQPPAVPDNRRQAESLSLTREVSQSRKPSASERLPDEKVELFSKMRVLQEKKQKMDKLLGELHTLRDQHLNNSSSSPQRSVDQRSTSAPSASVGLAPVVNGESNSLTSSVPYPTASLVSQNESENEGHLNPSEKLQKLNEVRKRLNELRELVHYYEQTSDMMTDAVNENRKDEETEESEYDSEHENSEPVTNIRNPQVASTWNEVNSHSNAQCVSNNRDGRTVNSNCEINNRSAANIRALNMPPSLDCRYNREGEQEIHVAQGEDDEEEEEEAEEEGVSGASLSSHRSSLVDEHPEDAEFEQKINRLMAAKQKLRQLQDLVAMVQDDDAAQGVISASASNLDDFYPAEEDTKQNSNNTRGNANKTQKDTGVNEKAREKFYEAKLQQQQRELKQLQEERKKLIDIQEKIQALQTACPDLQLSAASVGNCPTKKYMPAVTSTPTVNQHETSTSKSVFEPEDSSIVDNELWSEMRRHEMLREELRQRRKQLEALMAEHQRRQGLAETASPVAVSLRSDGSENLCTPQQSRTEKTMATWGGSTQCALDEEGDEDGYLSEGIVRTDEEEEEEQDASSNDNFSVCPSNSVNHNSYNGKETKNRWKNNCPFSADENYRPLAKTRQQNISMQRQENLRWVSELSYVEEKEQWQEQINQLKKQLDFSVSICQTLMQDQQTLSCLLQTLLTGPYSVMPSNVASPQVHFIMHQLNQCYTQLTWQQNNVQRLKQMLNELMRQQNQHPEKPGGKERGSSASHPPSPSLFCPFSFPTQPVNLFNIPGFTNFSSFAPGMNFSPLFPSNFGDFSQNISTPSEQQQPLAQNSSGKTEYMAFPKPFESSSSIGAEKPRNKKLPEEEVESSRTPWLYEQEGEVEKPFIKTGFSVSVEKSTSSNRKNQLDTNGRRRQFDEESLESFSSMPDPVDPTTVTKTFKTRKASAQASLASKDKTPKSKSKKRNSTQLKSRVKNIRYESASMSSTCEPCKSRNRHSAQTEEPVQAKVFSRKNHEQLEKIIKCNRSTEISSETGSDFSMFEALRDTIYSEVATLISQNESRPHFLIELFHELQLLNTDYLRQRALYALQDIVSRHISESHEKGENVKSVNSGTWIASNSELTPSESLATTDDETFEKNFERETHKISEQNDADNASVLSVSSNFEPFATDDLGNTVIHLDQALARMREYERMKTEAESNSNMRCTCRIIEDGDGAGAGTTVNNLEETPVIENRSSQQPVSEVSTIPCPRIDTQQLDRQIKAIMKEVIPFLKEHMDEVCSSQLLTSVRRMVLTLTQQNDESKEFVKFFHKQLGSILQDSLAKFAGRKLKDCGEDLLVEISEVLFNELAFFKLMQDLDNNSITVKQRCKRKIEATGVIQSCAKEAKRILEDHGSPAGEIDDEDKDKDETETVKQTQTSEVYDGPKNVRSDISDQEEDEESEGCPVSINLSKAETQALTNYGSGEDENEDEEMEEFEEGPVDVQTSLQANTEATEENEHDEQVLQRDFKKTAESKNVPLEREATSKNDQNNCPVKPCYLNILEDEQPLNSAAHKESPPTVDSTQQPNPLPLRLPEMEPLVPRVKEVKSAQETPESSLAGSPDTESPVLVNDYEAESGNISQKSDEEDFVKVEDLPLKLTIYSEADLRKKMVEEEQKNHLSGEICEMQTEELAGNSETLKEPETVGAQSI
# No constants are given. Whether binding was seen depends on the method and setting. Binding seen in cells or lysates may run through a third protein. A yes stands for co-enrichment or nearness to the bait. Other partners may have been found.
# Target: myc-BirA*-FOPNL (human) (UniProt Q96NB1)
# Test: proximity labelling
row,Molecule,binding
1,Talpid3 (from UniProt Q9BVV6 1-1533),binds
2,"Cep131 (protein, UniProt Q9UPN4 1-1083) MKGTRAIGSVPERSPAGVDLSLTGLPPPVSRRPGSAATTKPIVRSVSVVTGSEQKRKVLEATGPGGSQAINNLRRSNSTTQVSQPRSGSPRPTEPTDFLMLFEGSPSGKKRPASLSTAPSEKGATWNVLDDQPRGFTLPSNARSSSALDSPAGPRRKECTVALAPNFTANNRSNKGAVGNCVTTMVHNRYTPSERAPPLKSSNQTAPSLNNIIKAATCEGSESSGFGKLPKNVSSATHSARNNTGGSTGLPRRKEVTEEEAERFIHQVNQATVTIQRWYRHQVQRRGAGAARLEHLLQAKREEQRQRSGEGTLLDLHQQKEAARRKAREEKARQARRAAIQELQQKRALRAQKASTAERGPPENPRETRVPGMRQPAQELSPTPGGTAHQALKANNTGGGLPAAGPGDRCLPTSDSSPEPQQPPEDRTQDVLAQDAAGDNLEMMAPSRGSAKSRGPLEELLHTLQLLEKEPDVLPRPRTHHRGRYAWASEVTTEDDASSLTADNLEKFGKLSAFPEPPEDGTLLSEAKLQSIMSFLDEMEKSGQDQLDSQQEGWVPEAGPGPLELGSEVSTSVMRLKLEVEEKKQAMLLLQRALAQQRDLTARRVKETEKALSRQLQRQREHYEATIQRHLAFIDQLIEDKKVLSEKCEAVVAELKQEDQRCTERVAQAQAQHELEIKKLKELMSATEKARREKWISEKTKKIKEVTVRGLEPEIQKLIARHKQEVRRLKSLHEAELLQSDERASQRCLRQAEELREQLEREKEALGQQERERARQRFQQHLEQEQWALQQQRQRLYSEVAEERERLGQQAARQRAELEELRQQLEESSSALTRALRAEFEKGREEQERRHQMELNTLKQQLELERQAWEAGRTRKEEAWLLNREQELREEIRKGRDKEIELVIHRLEADMALAKEESEKAAESRIKRLRDKYEAELSELEQSERKLQERCSELKGQLGEAEGENLRLQGLVRQKERALEDAQAVNEQLSSERSNLAQVIRQEFEDRLAASEEETRQAKAELATLQARQQLELEEVHRRVKTALARKEEAVSSLRTQHEAAVKRADHLEELLEQHRRPTPSTK",binds
3,"endogenous OFIP/MNR/KIAA0753 (protein, UniProt Q2KHM9 1-967) MGPGQPASTCVHLAPRTQLDGRSDPKVLQTQNQLQFNRNVPTHSSNLAIRYSCPHAIRIEKLKHSYNESYHCKDADCRVGPDLGSSVSFSVISQERLSYAVHLARRDVKRRQFEKHIKEHHLRSQPQSSQKCGHTKYKIPDHRVERKESKSQAACQCSHQPSKVEISSSGAKVYLYSSHPGQSDLTVPNSPPTHDPGLQPHPRIGDHKNISEQKSLLEVQRLQKELSSCIHKIEEVTKKDRLEEALDPDEERRIRIRRQEQAARSARMLYVLQQQVKEIQEELDKLSPHKIKHTKKSWAMSKLAAAHRGAIRALQMFVTQFTDRGEHPLPARCKELGSLIRQLSLCSVKLDADPSVPDVVIDILQQIEALESLLEKKLSPKKVKKCFSEIRSRFPIGSQKALERWPSTSPKGERRPLTAKDTFPQETSRPSVAKQLLADKYQPDTELPETQRLQSELDVLDADIVLEEGPFILDQSASFKDEVLAVAKTKAGKKKPVTENVPFRKKDTLAPARQQGLRKAERGRQSQPHSKSRVQQTTVSSRLKMNRQPVKDRKAPWIPPNPTSPPASPKCAAWLKVKTSPRDATKEPLQQEDPQEESHLTGAVEHEAARLAWLDAETSKRLKELEELKAKEIDSMQKQRLDWLDAETSRRTKELNELKAEEMYRLQQLSVSATHLADKVEEAVLDRLKPLLVKAQRVNSTTEANIHLKDGSSVNTAKAQPAQEVAAVDFESNNIRQLDDFLEDCASELWAVTHAKILGSETLATVEDSKDSPDLEIMMRRMEEMEKYQESVRQRYNKIAYADPRLWMQEENNDQKISAISEKPLSPHPIRITKTVDRKDPAVNIMLERPCNGNSLDESVGTEEGSEKREAPLLSLAEDSQQKEGRAPLFVPPGMQHSIGDYCSRFEQYLRIISHEAVGSFNPWLIAESFSEELVDEALGAVAAELQDMCEDYAEAVFTSEFLEAAT",binds

# Second part, the molecule after the results:
row,binding,Molecule
1,binds,CEP350 (from UniProt Q5VT06 1-3117)
2,binds,PCM1 (from UniProt Q15154 1-2024)
3,binds,"endogenous CEP90/PIBF1 (protein, UniProt Q8WXW3 1-757) MSRKISKESKKVNISSSLESEDISLETTVPTDDISSSEEREGKVRITRQLIERKELLHNIQLLKIELSQKTMMIDNLKVDYLTKIEELEEKLNDALHQKQLLTLRLDNQLAFQQKDASKYQELMKQEMETILLRQKQLEETNLQLREKAGDVRRNLRDFELTEEQYIKLKAFPEDQLSIPEYVSVRFYELVNPLRKEICELQVKKNILAEELSTNKNQLKQLTETYEEDRKNYSEVQIRCQRLALELADTKQLIQQGDYRQENYDKVKSERDALEQEVIELRRKHEILEASHMIQTKERSELSKEVVTLEQTVTLLQKDKEYLNRQNMELSVRCAHEEDRLERLQAQLEESKKAREEMYEKYVASRDHYKTEYENKLHDELEQIRLKTNQEIDQLRNASREMYERENRNLREARDNAVAEKERAVMAEKDALEKHDQLLDRYRELQLSTESKVTEFLHQSKLKSFESERVQLLQEETARNLTQCQLECEKYQKKLEVLTKEFYSLQASSEKRITELQAQNSEHQARLDIYEKLEKELDEIIMQTAEIENEDEAERVLFSYGYGANVPTTAKRRLKQSVHLARRVLQLEKQNSLILKDLEHRKDQVTQLSQELDRANSLLNQTQQPYRYLIESVRQRDSKIDSLTESIAQLEKDVSNLNKEKSALLQTKNQMALDLEQLLNHREELAAMKQILVKMHSKHSENSLLLTKTEPKHVTENQKSKTLNVPKEHEDNIFTPKPTLFTKKEAPEWSKKQKMKT"
